The structures appear in SMILES notation. Some of the results follow. Shown are side measurements of this screen, not its main read-out; they come without a call. The list favours compounds with an active or inconclusive main result. The note in brackets gives the kind of curve behind each potency; many fits are weak.

The nature of the assay: qHTS Assay for Lipid Storage Modulators in Drosophila S3 Cells.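 As to cell number change: cells counted by Cell Tracker Red CMTPX staining in the red channel.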 The note with it: BODIPY lipid droplet fluorescence, 18-24 h; for cell number change: measured here: cell count max response, cells fed with added oleic acid. An outline of the steps: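 Laser-scanning cytometry quantifies lipid droplet accumulation (500–530 nm total intensity; droplet/cell object ratio) in oleic acid-fed (400 uM added) Drosophila S3 cells treated with a concentration series. 20 uM Triacsin C defined 100% inhibition.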

[1] abbreviates: measured here: lipid fluorescence (Fed channel) AC50, cells fed with added oleic acid.
Where [2] appears, read: measured here: cell number channel AC50, cells fed with added oleic acid.

Consider `Cc1cc(/C=N/Nc2ccc([N+](=O)[O-])cn2)c(C)n1-c1cccc(C(=O)O)c1`, for which the cell number change was determined as 15%. The concentration at half-maximal activity (AC50) under setting [1] is 0.00461 µM [rising, full curve, poor fit]. For `O=C(NC1CCC(=O)N(CCOc2ccccc2)CC1)OCc1ccccc1` (stereo not given), the cell number change came out at 23.3%. Further, the AC50 under setting [1] was 2.06 µM [rising, partial curve].

In the case of `Cc1cc(=O)oc(C)c1C(=O)N1CCN(C(c2ccccc2)c2ccccc2)CC1`, the cell number change was -5.61%. Besides, the AC50 under setting [1] was 0.731 µM [rising, full curve, poor fit]. For `COC(=O)Nc1ccc(SCC(=O)c2ccccc2)cc1`, the cell number change worked out at 27.4%. For the same compound, the AC50 under setting [2] was 0.0517 µM [rising, full curve]. For the same compound, the AC50 under setting [1] was 0.291 µM [rising, full curve]. On to `O=C(Oc1ccc(-c2nnco2)cc1)C1CCN(C(=O)c2ccc(F)cc2)CC1`, for which the cell number change is -6.91%. Moreover, the AC50 under setting [1] is 0.731 µM [falling, single point]. Consider `CCCCn1nnnc1SCC(=O)Nc1sc2c(c1C#N)CCCC2`, for which the cell number change is 8.56%. Besides, the half-maximal activity concentration (AC50) under setting [1] was 0.259 µM [rising, full curve, poor fit]. As to `O=S1(=O)CCC(NCC2CCCO2)C1` (stereo not given), the cell number change is -5.79%.

For `Cc1[nH]n(-c2ccccc2)c(=O)c1N=Nc1c(Cl)cccc1Cl`, the cell number change was -0.338%. Regarding `CC(Oc1ccc(Cl)cc1Cl)C(=O)OCC(=O)c1c(N)n(C)c(=O)n(C)c1=O` (stereo not given), the cell number change is 24.2%. Besides, the AC50 under setting [2] was 0.013 µM [rising, full curve, poor fit]. With `O=C(NNc1cccc(Cl)n1)Nc1ccccc1F`, the cell number change is 0.226%. Besides, under setting [1], the AC50 is 29.1 µM [rising, single point].

With `NC(=O)c1nsc(C(=O)N(CC(=O)NC2CCCCC2)c2ccc(Cl)cc2)c1N`, the AC50 under setting [1] is 32.6 µM [falling, partial curve]. `COc1ccccc1N(Cc1ccccc1)S(=O)(=O)c1cccc(C(=O)NC2CC(C)(C)NC(C)(C)C2)c1`: the cell number change was -9.19%. Besides, the AC50 under setting [2] is 0.13 µM [falling, full curve, poor fit]. For the same compound, the AC50 under setting [1] was 8.2 µM [falling, partial curve]. For the compound `CC(C)C(=O)NC(=O)COC(=O)/C=C/c1cccs1`, the cell number change was 28.9%. Further, the AC50 under setting [1] is 35.5 µM [rising, single point]. As for `Cc1ccc(-c2nc3ccccc3nc2Cl)cc1`, the cell number change was determined as 19%. Turning to `COC(=O)CSc1nc2nc(C)cc(C)n2n1`, the cell number change worked out at 13.6%. For the same compound, the AC50 under setting [1] was 3.66 µM [falling, full curve]. For the compound `CCCCSc1nnc(CSc2ncccn2)n1C`, the cell number change came to 30%. Further, the half-maximal activity concentration (AC50) under setting [1] is 3.66 µM [rising, full curve, poor fit]. For `COC(=O)c1ccc(-c2nc(-c3cccs3)no2)cc1`, under setting [1], the concentration at half-maximal activity (AC50) is 0.651 µM [rising, full curve, poor fit].

As to `COc1ccccc1C(CNc1nc(C(F)(F)F)nc2ccccc12)N(C)C` (stereo not given), the cell number change amounted to 8.82%. Consider `Clc1ccc2ccc3cccnc3c2n1`, for which the cell number change was -22.5%. On to `CCOc1ccc(N2C(=O)CCC2=O)cc1`, for which the cell number change was -28.8%. Under setting [2], the AC50 is 0.517 µM [falling, full curve]. The half-maximal activity concentration (AC50) under setting [1] was 0.82 µM [falling, full curve]. As for `COc1ccc(C2=NCCc3cc(OC)c(OC)cc32)cc1OC`, the cell number change is -15.1%. The AC50 under setting [1] is 2.06 µM [falling, partial curve]. As for `Cc1ccc(NC(=O)CCS(=O)(=O)c2cc3c(cc2Cl)NC(=O)CO3)cc1`, the cell number change was -4.13%. Moreover, the half-maximal activity concentration (AC50) under setting [1] is 29.1 µM [rising, single point]. For the compound `O/N=C/c1cn(-c2ccc(Cl)cc2)nn1`, the cell number change turned out to be 24.9%. With `CCc1nnc(NC(=O)c2cccc(S(=O)(=O)N3CC(c4ccccc4)CC3=O)c2)s1` (stereo not given), the cell number change stood at 3.3%. Also, the half-maximal activity concentration (AC50) under setting [1] was 0.651 µM [falling, single point]. Regarding `Cc1cccc(C)c1NC(=O)COC(=O)CN1C(=O)C2CCCCC2C1=O` (stereo not given), the cell number change worked out at 16.4%. Further, the half-maximal activity concentration (AC50) under setting [1] is 3.66 µM [rising, full curve, poor fit]. With `CCn1c2ccccc2c2c3ncc4cccn4c3ccc21`, the cell number change is -26.5%. Moreover, the half-maximal activity concentration (AC50) under setting [1] was 29.1 µM [falling, single point]. In the case of `COc1ccc(S(=O)(=O)n2cccc2)c(OC)c1`, the cell number change was -21.4%.

As for `Cc1ccc(NC(=O)CSc2nnc(-c3cccs3)o2)cc1S(=O)(=O)N(C)C`, the cell number change was determined as 126%. For the same compound, under setting [2], the concentration at half-maximal activity (AC50) is 29.1 µM [rising, single point]. Moreover, under setting [1], the concentration at half-maximal activity (AC50) is 29.1 µM [rising, partial curve, poor fit]. As to `CN1CCN(c2ccccc2NC(=O)c2ccc(OCc3ccccc3)cc2)CC1`, the cell number change was determined as 148%. For the same compound, the half-maximal activity concentration (AC50) under setting [1] was 16.4 µM [rising, partial curve]. Regarding `Cc1cccc(NC(=O)COc2ccccc2)c1`, the cell number change is 10.6%. Moreover, the concentration at half-maximal activity (AC50) under setting [1] was 6.51 µM [falling, single point].

On to `CC(C)[C@H](NC(=O)N1c2ccccc2NC(=O)[C@@H]1C(C)C)C(=O)N[C@H](Cc1ccccc1)C(=O)O`, for which the AC50 under setting [1] is 29.1 µM [rising, single point].

As for `CC(=O)N/C(=C/c1cccnc1)C(=O)Nc1ccc(Cl)cc1`, the cell number change is -20.8%. In addition, the half-maximal activity concentration (AC50) under setting [1] is 0.13 µM [falling, full curve, poor fit]. Consider `CCCCCCCCC(=O)NC(NC(=S)N1CCOCC1)C(Cl)(Cl)Cl` (stereo not given), for which the cell number change is -30.7%. Under setting [2], the AC50 was 23.1 µM [falling, single point]. Besides, the AC50 under setting [1] is 23.1 µM [falling, single point]. Take `Cc1nn(-c2ccccc2)c2c1C(c1cccs1)C(C#N)=C(N)O2` (stereo not given): the concentration at half-maximal activity (AC50) under setting [2] was 6.51 µM [rising, single point].

On to `Cc1ccccc1OCCC(=O)OCC(=O)Nc1c(C)nn(-c2ccccc2)c1C`, for which the cell number change was -30.5%. Also, under setting [2], the AC50 is 0.259 µM [falling, full curve, poor fit]. Moreover, the AC50 under setting [1] was 0.411 µM [rising, full curve]. As for `O=C(NC(=S)NC1CCSC1=O)c1ccccc1` (stereo not given), the cell number change amounted to 13.3%. Under setting [2], the concentration at half-maximal activity (AC50) is 0.103 µM [falling, full curve, poor fit]. For the compound `CCc1c(C)sc(NC(=O)c2ccco2)c1C(=O)N1CCCCC1`, the cell number change turned out to be 9.8%. Further, under setting [1], the AC50 is 9.2 µM [falling, partial curve, poor fit].

As for `COc1ccc(C2C(C#N)=C(N)N(c3cccnc3)C3=C2C(=O)CCC3)cc1Cn1cc([N+](=O)[O-])cn1` (stereo not given), the cell number change is -23.7%. The concentration at half-maximal activity (AC50) under setting [1] was 1.64 µM [falling, partial curve]. On to `O=C(CN1C(=O)c2ccccc2S1(=O)=O)N1CCN(Cc2ccc3c(c2)OCO3)CC1`, for which the cell number change is 6.86%. Also, under setting [1], the concentration at half-maximal activity (AC50) is 23.1 µM [rising, partial curve, poor fit]. For the compound `COc1ccc(C(=O)NC(=S)N2CCN(C)CC2)cc1Br`, the cell number change was -17.6%. For the same compound, the half-maximal activity concentration (AC50) under setting [1] was 0.291 µM [rising, full curve, poor fit].

As a reminder, the AC50 is the concentration at which the activity in the assay is half-maximal. Higher therefore signals activity only at high concentration.

The values above are taken from PubChem BioAssay AID2685 (National Center for Advancing Translational Sciences (NCATS), 2010).
